{"source": "PubChem BioAssay AID743448 (Peter MacCallum Cancer Centre, 2014)", "test": "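Third-round triage of 106 confirmed candidates in four colon lines under two drugs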 (follow-up of hits)", "cells": "four human colon cancer cell lines: HCT116-VR (vorinostat-resistant HCT116 derivative), SW480, SW620 and LIM1215", "reagent": "siRNA pool against human genes, 40 nM siRNA pool", "time to read-out": "drug added two days after transfection, read one day later", "treatment": "vorinostat 2.5 µM on one half of each plate, etoposide 5 µM on the other half", "measurement": "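Caspase luminescence and viability fluorescence, each expressed relative to mock transfection and also as robust z-scores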", "reading the numbers": "caspase ratio to mock: higher = more caspase activity than mock; viability ratio to mock: higher = more live cells than mock", "hit rule": "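Hit means caspase ratio to mock at least 1.6, or viability ratio to mock at most 0.75; wells with strong death in the absence of drug get no call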", "meaning of the calls": "active = caspase or viability hit in this panel; inactive = no change, or unhealthy well", "note": "This is an unselected part of 106 reagents. 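Calls are per line and drug panel including etoposide, not vorinostat-specific; gene picks needed hits in two or more extra lines with vorinostat versus etoposide.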 A number with no mark means an inactive call. Not all columns of the deposit are shown."}
{"target gene":"TBC1D20 (TBC1 domain family member 20)","cell line and drug panel":"LIM1215 cells with etoposide","caspase ratio to mock":"2.1 (active)","viability ratio to mock":1}
{"target gene":"TBC1D20 (TBC1 domain family member 20)","cell line and drug panel":"LIM1215 cells with vorinostat","caspase ratio to mock":"2.69 (active)","viability ratio to mock":0.84}
{"target gene":"TBC1D20 (TBC1 domain family member 20)","cell line and drug panel":"SW480 cells with etoposide","caspase ratio to mock":4.23,"viability ratio to mock":0.9}
{"target gene":"TBC1D20 (TBC1 domain family member 20)","cell line and drug panel":"SW480 cells with vorinostat","caspase ratio to mock":1.83,"viability ratio to mock":0.74}
{"target gene":"TBC1D20 (TBC1 domain family member 20)","cell line and drug panel":"SW620 cells with etoposide","caspase ratio to mock":"2.14 (active)","viability ratio to mock":0.86}
{"target gene":"TBC1D20 (TBC1 domain family member 20)","cell line and drug panel":"SW620 cells with vorinostat","caspase ratio to mock":"1.62 (active)","viability ratio to mock":0.73}
{"target gene":"TBC1D20 (TBC1 domain family member 20)","cell line and drug panel":"vorinostat-resistant HCT116 cells with etoposide","caspase ratio to mock":"1.92 (active)","viability ratio to mock":1.06}
{"target gene":"TBC1D20 (TBC1 domain family member 20)","cell line and drug panel":"vorinostat-resistant HCT116 cells with vorinostat","caspase ratio to mock":"2.34 (active)","viability ratio to mock":0.93}
{"target gene":"FANCA (FA complementation group A)","cell line and drug panel":"LIM1215 cells with etoposide","caspase ratio to mock":4.7,"viability ratio to mock":0.83}
{"target gene":"FANCA (FA complementation group A)","cell line and drug panel":"LIM1215 cells with vorinostat","caspase ratio to mock":"4.53 (active)","viability ratio to mock":0.93}
{"target gene":"FANCA (FA complementation group A)","cell line and drug panel":"SW480 cells with etoposide","caspase ratio to mock":"2.41 (active)","viability ratio to mock":1}
{"target gene":"FANCA (FA complementation group A)","cell line and drug panel":"SW480 cells with vorinostat","caspase ratio to mock":"2.02 (active)","viability ratio to mock":0.94}
{"target gene":"FANCA (FA complementation group A)","cell line and drug panel":"SW620 cells with etoposide","caspase ratio to mock":1.58,"viability ratio to mock":0.98}
{"target gene":"FANCA (FA complementation group A)","cell line and drug panel":"SW620 cells with vorinostat","caspase ratio to mock":"1.68 (active)","viability ratio to mock":0.94}
{"target gene":"FANCA (FA complementation group A)","cell line and drug panel":"vorinostat-resistant HCT116 cells with etoposide","caspase ratio to mock":"2.16 (active)","viability ratio to mock":0.91}
{"target gene":"FANCA (FA complementation group A)","cell line and drug panel":"vorinostat-resistant HCT116 cells with vorinostat","caspase ratio to mock":"2.55 (active)","viability ratio to mock":0.97}

Taken from above:
Under “caspase ratio to mock”, TBC1D20 (TBC1 domain family member 20), cell line and drug panel LIM1215 cells with vorinostat shows 2.69 (active)
For “viability ratio to mock”, TBC1D20 (TBC1 domain family member 20), cell line and drug panel SW480 cells with vorinostat reads 0.74
TBC1D20 (TBC1 domain family member 20), cell line and drug panel SW620 cells with etoposide, caspase ratio to mock → 2.14 (active)

The listing continues.
{"target gene":"GPER1 (G protein-coupled estrogen receptor 1)","cell line and drug panel":"LIM1215 cells with etoposide","caspase ratio to mock":"3.3 (active)","viability ratio to mock":0.91}
{"target gene":"GPER1 (G protein-coupled estrogen receptor 1)","cell line and drug panel":"LIM1215 cells with vorinostat","caspase ratio to mock":"2.44 (active)","viability ratio to mock":1.08}
{"target gene":"GPER1 (G protein-coupled estrogen receptor 1)","cell line and drug panel":"SW480 cells with etoposide","caspase ratio to mock":"2.6 (active)","viability ratio to mock":0.9}
{"target gene":"GPER1 (G protein-coupled estrogen receptor 1)","cell line and drug panel":"SW480 cells with vorinostat","caspase ratio to mock":"2.17 (active)","viability ratio to mock":1}
{"target gene":"GPER1 (G protein-coupled estrogen receptor 1)","cell line and drug panel":"SW620 cells with etoposide","caspase ratio to mock":"1.4 (active)","viability ratio to mock":0.72}
{"target gene":"GPER1 (G protein-coupled estrogen receptor 1)","cell line and drug panel":"SW620 cells with vorinostat","caspase ratio to mock":1.17,"viability ratio to mock":0.83}
{"target gene":"GPER1 (G protein-coupled estrogen receptor 1)","cell line and drug panel":"vorinostat-resistant HCT116 cells with etoposide","caspase ratio to mock":"2.62 (active)","viability ratio to mock":0.9}
{"target gene":"GPER1 (G protein-coupled estrogen receptor 1)","cell line and drug panel":"vorinostat-resistant HCT116 cells with vorinostat","caspase ratio to mock":"2.37 (active)","viability ratio to mock":0.92}
{"target gene":"CAPN12 (calpain 12)","cell line and drug panel":"LIM1215 cells with etoposide","caspase ratio to mock":2.32,"viability ratio to mock":0.57}
{"target gene":"CAPN12 (calpain 12)","cell line and drug panel":"LIM1215 cells with vorinostat","caspase ratio to mock":1.92,"viability ratio to mock":0.86}
{"target gene":"CAPN12 (calpain 12)","cell line and drug panel":"SW480 cells with etoposide","caspase ratio to mock":1.38,"viability ratio to mock":0.7}
{"target gene":"CAPN12 (calpain 12)","cell line and drug panel":"SW480 cells with vorinostat","caspase ratio to mock":1.22,"viability ratio to mock":0.74}
{"target gene":"CAPN12 (calpain 12)","cell line and drug panel":"SW620 cells with etoposide","caspase ratio to mock":0.74,"viability ratio to mock":0.77}
{"target gene":"CAPN12 (calpain 12)","cell line and drug panel":"SW620 cells with vorinostat","caspase ratio to mock":0.86,"viability ratio to mock":0.84}
{"target gene":"CAPN12 (calpain 12)","cell line and drug panel":"vorinostat-resistant HCT116 cells with etoposide","caspase ratio to mock":"1.9 (active)","viability ratio to mock":0.84}
{"target gene":"CAPN12 (calpain 12)","cell line and drug panel":"vorinostat-resistant HCT116 cells with vorinostat","caspase ratio to mock":"2.19 (active)","viability ratio to mock":0.94}
